Measured values reported in the supplement of paper PMC8866396.
± gives the standard deviation of the averaged measurements. The list shows a part of the results. Most values lie within the scatter of the assay; repeated measurements hardly agree.

Key:
IL-6-GFP PC-9GR = assay: IL-6-GFP fluorescence relative to DMSO control (fraction of control); higher = more IL-6-GFP expression; conditions: compound concentration: 10 uM; treatment time: 48 h
Method: (§1)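 IL-6-GFP-overexpressing PC-9 and PC-9GR EGFR-mutant lung cancer cells (3000 cells/well, 96-well) were treated for 48 h with each compound of the Selleck L2000 library at 10 uM. IL-6-GFP fluorescence was read on a high-content screening system, and viability by CCK-8 absorbance on a parallel plate set. Each value was normalised as compound well / DMSO control well; two independent replicates.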

IL-6-GFP PC-9 = assay: as above; conditions: compound concentration: 10 uM; treatment time: 48 h
Method: as §1

Cc1c(N)c(=O)n(-c2ccccc2)n1C [4-Aminoantipyrine]
IL-6-GFP fluorescence (IL-6-GFP PC-9GR): 0.706 ± 0.28 | IL-6-GFP fluorescence (IL-6-GFP PC-9): 0.8907 ± 0.0026

Cn1c(=O)cc(N2CCCC(N)C2)n(Cc2cc(F)ccc2C#N)c1=O.O=C(O)CCC(=O)O (stereo not drawn) [Trelagliptin succinate]
IL-6-GFP fluorescence (IL-6-GFP PC-9GR): 1.04 ± 0.025 | IL-6-GFP fluorescence (IL-6-GFP PC-9): 0.817 ± 0.12

CC(C(=O)O)c1ccc(C(=O)c2cccs2)cc1 (stereo not drawn) [Suprofen]
IL-6-GFP fluorescence (IL-6-GFP PC-9GR): 0.568 ± 0.23 | IL-6-GFP fluorescence (IL-6-GFP PC-9): 0.726 ± 0.047

CCCCC1(COC(=O)CCC(=O)O)C(=O)N(c2ccccc2)N(c2ccccc2)C1=O [Suxibuzone]
IL-6-GFP fluorescence (IL-6-GFP PC-9GR): 0.495 ± 0.38 | IL-6-GFP fluorescence (IL-6-GFP PC-9): 0.922 ± 0.19

CN(C)CCC(c1ccc(Br)cc1)c1ccccn1.O=C(O)/C=C\C(=O)O (stereo not drawn) [Brompheniramine hydrogen maleate]
IL-6-GFP fluorescence (IL-6-GFP PC-9GR): 1.09 ± 0.3 | IL-6-GFP fluorescence (IL-6-GFP PC-9): 0.805 ± 0.21

CCC1(O)C(=O)OCc2c1cc1n(c2=O)Cc2cc3c(CN(C)C)c(O)ccc3nc2-1 (stereo not drawn) [Topotecan]
IL-6-GFP fluorescence (IL-6-GFP PC-9GR): 1.43 ± 0.55 | IL-6-GFP fluorescence (IL-6-GFP PC-9): 1.33 ± 0.26

NC(CO)(CO)CO.O=C(c1ccccc1)c1ccc2n1CCC2C(=O)O (stereo not drawn) [Ketorolac tromethamine salt]
IL-6-GFP fluorescence (IL-6-GFP PC-9GR): 0.787 ± 0.031 | IL-6-GFP fluorescence (IL-6-GFP PC-9): 0.685 ± 0.12

CNC(=O)c1ccccc1Sc1ccc2c(/C=C/c3ccccn3)n[nH]c2c1 [Axitinib]
IL-6-GFP fluorescence (IL-6-GFP PC-9GR): 1.17 ± 0.15 | IL-6-GFP fluorescence (IL-6-GFP PC-9): 1.068 ± 0.0028

COc1ccc2cc1Oc1ccc(cc1)CC1c3cc(c(OC)cc3CCN1C)Oc1c(O)c(OC)cc3c1C(C2)N(C)CC3 (single isomer, unassigned; (+)) [(+)-Fangchinoline]
IL-6-GFP fluorescence (IL-6-GFP PC-9GR): 0.89819 ± 4.1e-05 | IL-6-GFP fluorescence (IL-6-GFP PC-9): 0.824 ± 0.097

O=C(O)c1ccccc1Nc1cccc(C(F)(F)F)c1 [Flufenamic acid]
IL-6-GFP fluorescence (IL-6-GFP PC-9GR): 0.534 ± 0.37 | IL-6-GFP fluorescence (IL-6-GFP PC-9): 0.971 ± 0.028

C=CC(=O)N1CCCC(n2nc(-c3ccc(Oc4ccccc4)cc3)c3c(N)ncnc32)C1 (stereo not drawn)
IL-6-GFP fluorescence (IL-6-GFP PC-9GR): 0.179 ± 0.17 | IL-6-GFP fluorescence (IL-6-GFP PC-9): 0.457 ± 0.12

CCCCC(=O)OC1(C(=O)CO)C(C)CC2C3CCC4=CC(=O)C=CC4(C)C3(F)C(O)CC21C (stereo not drawn) [Betamethasone Valerate]
IL-6-GFP fluorescence (IL-6-GFP PC-9GR): 0.8 ± 0.39 | IL-6-GFP fluorescence (IL-6-GFP PC-9): 0.931 ± 0.14

Cc1c(-c2ccc(O)cc2)n(Cc2ccc(OCCN3CCCCCC3)cc2)c2ccc(O)cc12.Cl [Bazedoxifene HCl]
IL-6-GFP fluorescence (IL-6-GFP PC-9GR): 0.853 ± 0.16 | IL-6-GFP fluorescence (IL-6-GFP PC-9): 0.992 ± 0.12

CC(=O)OC(C)C(C)C(=O)OCC12C3CC4(C)C(=CCC5C6(C)CCC(OC7OC(C(=O)[O][Na])C(OC8OC(CO)C(O)C(O)C8O)C(O)C7OC7OCC(O)C(O)C7O)C(C)(CO)C6CCC54C)C1CC(C)(C)C(O3)C2O (stereo not drawn) [Sodium Aescinate]
IL-6-GFP fluorescence (IL-6-GFP PC-9GR): 0.964 ± 0.27 | IL-6-GFP fluorescence (IL-6-GFP PC-9): 0.957 ± 0.12

CCN(CC)CCNC(=O)c1c(C)[nH]c(/C=C2\C(=O)Nc3ccc(F)cc32)c1C [Sunitinib]
IL-6-GFP fluorescence (IL-6-GFP PC-9GR): 1.93 ± 0.86 | IL-6-GFP fluorescence (IL-6-GFP PC-9): 1.2 ± 0.47

Cc1cc2c(C(N)=O)cccc2n1-c1nc2c(c(NCc3ccccc3)n1)COCC2
IL-6-GFP fluorescence (IL-6-GFP PC-9GR): 1.12 ± 0.33 | IL-6-GFP fluorescence (IL-6-GFP PC-9): 1.11 ± 0.29

CC1CC2C(C(O)CC3(C)C2CCC3(O)C(=O)COC(=O)CCC(=O)O)C2(C)C=CC(=O)C=C12 (stereo not drawn) [Methylprednisolone hemisuccinate]
IL-6-GFP fluorescence (IL-6-GFP PC-9GR): 0.957 ± 0.11 | IL-6-GFP fluorescence (IL-6-GFP PC-9): 0.82 ± 0.16

CC(C)C1C(=O)NC(CCCNC(=N)N)C(=O)NCC(=O)NC(CC(=O)O)C(=O)NC(Cc2ccccc2)C(=O)N1C.O=C(O)C(F)(F)F (stereo not drawn)
IL-6-GFP fluorescence (IL-6-GFP PC-9): 0.844 ± 0.021

Cc1cc(Nc2ncc(Cl)c(Nc3ccccc3S(=O)(=O)C(C)C)n2)c(OC(C)C)cc1C1CCNCC1 [Ceritinib (LDK378)]
IL-6-GFP fluorescence (IL-6-GFP PC-9): 0.487 ± 0.17

CCc1cc2c(cc1N1CCC(N3CCOCC3)CC1)C(C)(C)c1[nH]c3cc(C#N)ccc3c1C2=O
IL-6-GFP fluorescence (IL-6-GFP PC-9): 0.957 ± 0.23

COc1ccc2cc1Oc1ccc(cc1)CC1c3cc(c(OC)cc3CCN1C)Oc1c(OC)c(OC)cc3c1C(C2)N(C)CC3 (stereo not drawn) [Tetrandrine]
IL-6-GFP fluorescence (IL-6-GFP PC-9): 0.672 ± 0.029

CC(=O)Nc1ccccc1 [Acetanilide]
IL-6-GFP fluorescence (IL-6-GFP PC-9): 0.857 ± 0.048

O=C(O)CCCN1CCC(OC(c2ccc(Cl)cc2)c2ccccn2)CC1 (stereo not drawn) [Bepotastine]
IL-6-GFP fluorescence (IL-6-GFP PC-9): 0.912 ± 0.019

CCS(=O)(=O)O.COC(=O)c1ccc2c(c1)NC(=O)/C2=C(\Nc1ccc(N(C)C(=O)CN2CCN(C)CC2)cc1)c1ccccc1 [Nintedanib Ethanesulfonate Salt]
IL-6-GFP fluorescence (IL-6-GFP PC-9): 1.19 ± 0.1

CCC1(O)C(=O)OCc2c1cc1n(c2=O)Cc2cc3c(CN(C)C)c(O)ccc3nc2-1.Cl (stereo not drawn) [Topotecan HCl]
IL-6-GFP fluorescence (IL-6-GFP PC-9): 2.2 ± 0.22

O=C(/C=C/C=C/c1ccc2c(c1)OCO2)N1CCCCC1 [Piperine]
IL-6-GFP fluorescence (IL-6-GFP PC-9): 1.89 ± 0.8

Cc1ccc(Nc2c(F)cccc2Cl)c(CC(=O)O)c1 [Lumiracoxib]
IL-6-GFP fluorescence (IL-6-GFP PC-9): 0.856 ± 0.26

S=c1nc[nH]c2nc[nH]c12 [Mercaptopurine (6-MP)]
IL-6-GFP fluorescence (IL-6-GFP PC-9): 1.14 ± 0.024

COC1OC2OC3(C)CCC4C(C)CCC(C1C)C24OO3 (stereo not drawn) [Artemether]
IL-6-GFP fluorescence (IL-6-GFP PC-9): 0.925 ± 0.15

CC(C(=O)O)c1cccc(C(=O)c2ccccc2)c1 (stereo not drawn) [Ketoprofen]
IL-6-GFP fluorescence (IL-6-GFP PC-9): 0.848 ± 0.082

COc1ccc(C2OCC3C(c4cc(OC)c(OC)c(OC)c4)OCC23)cc1OC (stereo not drawn) [Magnolin]
IL-6-GFP fluorescence (IL-6-GFP PC-9): 0.678 ± 0.27

Nc1nc(Cl)nc2c1ncn2C1OC(CO)C(O)C1F (stereo not drawn) [Clofarabine]
IL-6-GFP fluorescence (IL-6-GFP PC-9): 1.01 ± 0.07

CC(C(=O)O)c1ccc(CC2CCCC2=O)cc1 (stereo not drawn) [Loxoprofen]
IL-6-GFP fluorescence (IL-6-GFP PC-9): 0.914 ± 0.12

CC(C)=CCC/C(C)=C/CC/C(C)=C/CCC(=O)OC/C=C(\C)CCC=C(C)C [Gefarnate]
IL-6-GFP fluorescence (IL-6-GFP PC-9): 0.834 ± 0.11

Cc1nc(Nc2ccc(F)cc2)nc(N2CCc3ccccc3C2C)c1C.Cl (stereo not drawn) [Revaprazan Hydrochloride]
IL-6-GFP fluorescence (IL-6-GFP PC-9): 0.976 ± 0.021

CCOc1ccc(NC(C)=O)cc1 [Phenacetin]
IL-6-GFP fluorescence (IL-6-GFP PC-9): 0.862 ± 0.22

CC(=O)[N-]S(=O)(=O)c1ccc(N)cc1.[Na+] [Sulfacetamide Sodium]
IL-6-GFP fluorescence (IL-6-GFP PC-9): 0.967 ± 0.017

CN1CCC(NC(=O)Nc2ccc(C#N)cc2)CC1c1nc2ccccc2[nH]1 (stereo not drawn)
IL-6-GFP fluorescence (IL-6-GFP PC-9): 0.95 ± 0.066

CN1C(=O)/C(=C2/C(=O)Nc3ccccc32)c2ccccc21 [Meisoindigo]
IL-6-GFP fluorescence (IL-6-GFP PC-9): 0.687 ± 0.15

O=C(c1ccc(F)c(F)c1Nc1ccc(I)cc1F)N1CC(O)(C2CCCCN2)C1 (stereo not drawn) [Cobimetinib (GDC-0973, RG7420)]
IL-6-GFP fluorescence (IL-6-GFP PC-9): 1.05 ± 0.034

CC(C)c1c(C(=O)Nc2ccccc2)c(-c2ccccc2)c(-c2ccc(F)cc2)n1CCC(O)CC(O)CC(=O)O (stereo not drawn) [atorvastatin]
IL-6-GFP fluorescence (IL-6-GFP PC-9): 0.776 ± 0.067

CCOc1ccc(Cc2cc(C3OC(CO)C(O)C(O)C3O)ccc2Cl)cc1 (stereo not drawn) [Dapagliflozin]
IL-6-GFP fluorescence (IL-6-GFP PC-9): 1.28 ± 0.39

CCC(=O)NS(=O)(=O)c1ccc(-c2c(-c3ccccc3)noc2C)cc1 [Parecoxib]
IL-6-GFP fluorescence (IL-6-GFP PC-9): 1.13 ± 0.16

COC1=C(OC)C(=O)C(CCCCCCCCCCO)=C(C)C1=O [Idebenone]
IL-6-GFP fluorescence (IL-6-GFP PC-9): 0.91 ± 0.016

CCC1(O)C(=O)OCc2c1cc1n(c2=O)Cc2cc3cc(O)ccc3nc2-1 (stereo not drawn) [Hydroxy Camptothecine]
IL-6-GFP fluorescence (IL-6-GFP PC-9): 1.82 ± 0.31

COc1cc(C2c3cc4c(cc3C(OC3OC5COC(c6cccs6)OC5C(O)C3O)C3COC(=O)C23)OCO4)cc(OC)c1O (stereo not drawn) [Teniposide]
IL-6-GFP fluorescence (IL-6-GFP PC-9): 1.17 ± 0.29

O=C(O)CCCN1CCC(OC(c2ccc(Cl)cc2)c2ccccn2)CC1.O=S(=O)(O)c1ccccc1 (stereo not drawn) [Bepotastine Besilate]
IL-6-GFP fluorescence (IL-6-GFP PC-9): 0.853 ± 0.27

CNC(=O)c1cc(Oc2ccc(NC(=O)Nc3ccc(Cl)c(C(F)(F)F)c3)cc2)ccn1 [Sorafenib]
IL-6-GFP fluorescence (IL-6-GFP PC-9): 0.945 ± 0.11

Cc1ccc(C(C)C)cc2c(C)ccc1-2 [Guaiazulene]
IL-6-GFP fluorescence (IL-6-GFP PC-9): 1.05 ± 0.07

CC(=O)OCC(=O)C1(O)C(C)CC2C3CCC4=CC(=O)C=CC4(C)C3(F)C(O)CC21C (stereo not drawn) [Dexamethasone Acetate]
IL-6-GFP fluorescence (IL-6-GFP PC-9): 0.888 ± 0.24

Nc1nc(N)c2nc(-c3ccccc3)c(N)nc2n1 [Triamterene]
IL-6-GFP fluorescence (IL-6-GFP PC-9): 1.08 ± 0.097

CCCC(=O)OC1(C(=O)CCl)C(C)CC2C3CCC4=CC(=O)C=CC4(C)C3(F)C(=O)CC21C (stereo not drawn) [clobetasone butyrate]
IL-6-GFP fluorescence (IL-6-GFP PC-9): 0.743 ± 0.014

CC(=O)Nc1ccc(OC(=O)c2ccccc2OC(C)=O)cc1 [Benorylate]
IL-6-GFP fluorescence (IL-6-GFP PC-9): 0.803 ± 0.016

CC(C)OC(=O)CCC/C=C\CC1C(O)CC(O)C1CCC(O)CCc1ccccc1 (stereo not drawn) [Latanoprost]
IL-6-GFP fluorescence (IL-6-GFP PC-9): 0.912 ± 0.11

CC1CNc2c(cccc2S(=O)(=O)NC(CCCNC(=N)N)C(=O)N2CCC(C)CC2C(=O)O)C1.O (stereo not drawn) [Argatroban Monohydrate]
IL-6-GFP fluorescence (IL-6-GFP PC-9): 0.85 ± 0.067

CC#CCn1c(N2CCCC(N)C2)nc2c1c(=O)n(Cc1nc(C)c3ccccc3n1)c(=O)n2C (stereo not drawn) [Linagliptin]
IL-6-GFP fluorescence (IL-6-GFP PC-9): 0.784 ± 0.064
